In article PMC7228129, “Evaluation of Developmental Toxicity, Developmental Neurotoxicity, and Tissue Dose in Zebrafish Exposed to GenX and Other PFAS” (Environmental Health Perspectives, 2020):

Test: Exposure media analysis (measured media concentration, UPLC-MSMS)
Conditions: for Measured media dose: media at 6 dpf; for Dil Corrected Reported Conc. (µM) (measured media concentration): exposure media, replicate plates/samples
[1] = nominal Concentration 4.41 µM, Experiment GX8, Plates A, B, C
[2] = nominal Concentration 7.87 µM, Experiment GX8, Plates A, B, C
[3] = nominal Concentration 14 µM, Experiment GX8, Plates A, B, C
[4] = nominal Concentration 25.1 µM, Experiment GX8, Plates A, B, C
[5] = nominal Concentration 44.8 µM, Experiment GX8, Plates A, B, C
[6] = nominal Concentration 80 µM, Experiment GX8, Plates A, B, C

| Compound | Measured media dose (nominal 25.1 μM, 0.4% DMSO) [mg/L] | Measured media dose (nominal 44.8 μM, 0.4% DMSO) [mg/L] | Measured media dose (nominal 80.0 μM, 0.4% DMSO) [mg/L] | Dil Corrected Reported Conc. (µM) (measured media concentration) (nominal concentration 4.41 µM) | Dil Corrected Reported Conc. (µM) (measured media concentration) (nominal concentration 7.87 µM) | Dil Corrected Reported Conc. (µM) (measured media concentration) (nominal concentration 14 µM) | Dil Corrected Reported Conc. (µM) (measured media concentration) (nominal concentration 25.1 µM) | Dil Corrected Reported Conc. (µM) (measured media concentration) (nominal concentration 44.8 µM) | Dil Corrected Reported Conc. (µM) (measured media concentration) (nominal concentration 80 µM) | Dil Corrected Reported Conc. (measured media concentration) [1] | Dil Corrected Reported Conc. (measured media concentration) [2] | Dil Corrected Reported Conc. (measured media concentration) [3] | Dil Corrected Reported Conc. (measured media concentration) [4] | Dil Corrected Reported Conc. (measured media concentration) [5] | Dil Corrected Reported Conc. (measured media concentration) [6] | further results |
| --- | --- | --- | --- | --- | --- | --- | --- | --- | --- | --- | --- | --- | --- | --- | --- | --- |
| O=C(O)C(F)(F)C(F)OC(F)(F)C(F)(F)C(F)(F)OC(F)(F)F (stereo not drawn) [ADONA, 4,8-Dioxa-3H-perfluorononanoate] | 9.98 ± 1.77 | 17.04 ± 2.24 | 26.52 ± 5.98 | 5.644 µM and 5.085 µM and 5.911 µM | 8.763 µM and 8.507 µM and 11.15 µM | 16.52 µM and 14.46 µM and 19.41 µM | 21.07 µM and 22.64 µM and 31.16 µM | 37.42 µM and 40 µM and 50.39 µM | 68.74 µM and 46.88 µM and 83.26 µM |  |  |  |  |  |  |  |
| O=C(O)C(F)(OC(F)(F)C(F)(F)C(F)(F)F)C(F)(F)F (stereo not drawn) [GenX Free Acid in water] |  |  |  | 4.913 µM and 4.375 µM and 2.71 µM | 6.557 µM and 3.941 µM and 4.587 µM | 12.02 µM and 10.62 µM and 5.982 µM | 16.55 µM and 20.79 µM and 12.26 µM | 22.15 µM and 18.41 µM and 23.73 µM | 25.01 µM and 33.92 µM and 36.04 µM |  |  |  |  |  |  |  |
| O=C(O)C(F)(OC(F)(F)C(F)(F)C(F)(F)F)C(F)(F)F (stereo not drawn) [GenX Free Acid, Perfluoro-2-propoxypropanoic acid] |  |  |  |  |  |  |  |  |  |  |  |  |  |  |  | Parent compound in media (GenX Free Acid diluted in DI water (Study 2)): detectable levels; Parent compound in media at 6 dpf (GenX Free Acid diluted in DMSO (Study 1)): undetectable; Measured media dose (nominal 25.1 μM in DI water (Study 2)): 5.46 ± 1.15 mg/L; Measured media dose (nominal 44.8 μM in DI water (Study 2)): 7.06 ± 0.73 mg/L; Measured media dose (nominal 80.0 μM in DI water (Study 2)): 10.44 ± 1.57 mg/L |
| O=S(=O)(O)C(F)(F)C(F)(F)OC(F)(C(F)(F)F)C(F)(F)OC(F)=C(F)F (stereo not drawn) [PFESA1, Perfluoro-3,6-dioxa-4-methyl-7-octene-1-sulfonic acid] | 7.67 ± 1.46 | 14.11 ± 1.91 | 29.89 ± 2.87 | 2.137 µM and 2.313 µM | 4.849 µM and 4.203 µM and 3.876 µM | 9.072 µM and 9.424 µM and 8.255 µM | 15.37 µM and 14.54 µM and 21.85 µM | 35.83 µM and 25.77 µM and 33.68 µM | 75.32 µM and 67.14 µM and 59.54 µM |  |  |  |  |  |  |  |
| O=C(O)C(F)(F)C(F)(F)C(F)(F)C(F)(F)C(F)(F)F [PFHxA, Perfluorohexanoic acid] | 10.76 ± 0.98 | 18.22 ± 1.19 | 37.16 ± 7.53 | 10.19 µM |  |  |  |  |  | 7.754 µM and 9.198 µM | 12.15 µM and 9.896 µM and 11.07 µM | 20.49 µM and 18.89 µM and 23.11 µM | 37 µM and 29.89 µM and 35.88 µM | 60.42 µM and 52.69 µM and 60.97 µM | 115.1 µM and 90.77 µM and 149.2 µM |  |
| O=S(=O)(O)C(F)(F)C(F)(F)C(F)(F)C(F)(F)C(F)(F)C(F)(F)F [PFHxS, Perfluorohexanesulfonic acid] | 16.06 ± 1.97 | 28.04 ± 4.72 |  |  |  |  |  |  |  | 6.519 µM and 6.751 µM and 6.616 µM | 10.3 µM and 11.69 µM and 10.61 µM | 21.51 µM and 21.03 µM and 19.59 µM | 30.29 µM and 40.16 µM and 39.47 µM | 48.78 µM and 70.69 µM and 72.5 µM | 92.26 µM and 106.1 µM and 156.6 µM | Measured media dose (nominal 14.0 μM, 0.4% DMSO): 9.07 ± 0.36 mg/L |
| O=C(O)C(F)(F)C(F)(F)C(F)(F)C(F)(F)C(F)(F)C(F)(F)C(F)(F)F [PFOA, Perfluoro-n-octanoic acid] | 9.91 ± 0.33 | 19.0 ± 2.45 | 33.01 ± 8.41 |  |  |  |  |  |  | 5.494 µM and 5.552 µM and 5.442 µM | 8.48 µM and 8.499 µM and 14.28 µM | 15.17 µM and 13.73 µM | 23.83 µM and 24.98 µM and 23.03 µM | 48.62 µM and 37.78 µM and 51.53 µM | 83.35 µM and 53.2 µM and 102.5 µM |  |
| O=S(=O)(O)C(F)(F)C(F)(F)C(F)(F)C(F)(F)C(F)(F)C(F)(F)C(F)(F)C(F)(F)F [PFOS, Perfluorooctanesulfonic acid] |  |  |  |  |  |  |  |  |  |  |  |  |  |  |  | Measured media dose (nominal 1.0 μM, 0.4% DMSO): 0.16 ± 0.007 mg/L; Measured media dose (nominal 1.8 μM, 0.4% DMSO): 0.31 ± 0.038 mg/L; Measured media dose (nominal 3.1 μM, 0.4% DMSO): 0.99 ± 0.194 mg/L; Dil Corrected Reported Conc. (measured media concentration) (nominal concentration 0.173 µM PFOS, experiment GX8, plates A-C): 0.0464 µM and 0.05268 µM and 0.02921 µM; Dil Corrected Reported Conc. (measured media concentration) (nominal concentration 0.309 µM PFOS, experiment GX8, plates A-C): 0.09308 µM and 0.07726 µM and 0.07079 µM; Dil Corrected Reported Conc. (measured media concentration) (nominal concentration 0.552 µM PFOS, experiment GX8, plates A-C): 0.1364 µM and 0.1689 µM and 0.1358 µM; Dil Corrected Reported Conc. (measured media concentration) (nominal concentration 0.986 µM PFOS, experiment GX8, plates A-C): 0.3205 µM and 0.3364 µM and 0.3034 µM; Dil Corrected Reported Conc. (measured media concentration) (nominal concentration 1.76 µM PFOS, experiment GX8, plates A-C): 0.5456 µM and 0.7295 µM and 0.6025 µM; Dil Corrected Reported Conc. (measured media concentration) (nominal concentration 3.144 µM PFOS, experiment GX8, plates A-C): 2.522 µM and 1.628 µM and 1.794 µM |

Where “and” joins values, the source holds several entries; their conditions need not be identical. Equal values may be shown once.
